Experiment [1] deals with Bovine fetuin (bait of affinity chromatography) (bovine) (UniProt P12763). Nature of the experiment: affinity purification with mass spectrometry; host protein bound to Avidin Agarose as bait; native M. pneumoniae lysate (1% C7BzO in PBS, pH 7.8) as prey; washed with PBS, eluted with 7 M urea, 2 M thiourea, 40 mM Tris-HCl, 1% C7BzO; 1D-SDS PAGE and LC-MS/MS; only the target purified.

The chains behind the UniProt entries cited, without tags or fusion partners. Residues count along the entry.
UniProt P12763, residues 19-359: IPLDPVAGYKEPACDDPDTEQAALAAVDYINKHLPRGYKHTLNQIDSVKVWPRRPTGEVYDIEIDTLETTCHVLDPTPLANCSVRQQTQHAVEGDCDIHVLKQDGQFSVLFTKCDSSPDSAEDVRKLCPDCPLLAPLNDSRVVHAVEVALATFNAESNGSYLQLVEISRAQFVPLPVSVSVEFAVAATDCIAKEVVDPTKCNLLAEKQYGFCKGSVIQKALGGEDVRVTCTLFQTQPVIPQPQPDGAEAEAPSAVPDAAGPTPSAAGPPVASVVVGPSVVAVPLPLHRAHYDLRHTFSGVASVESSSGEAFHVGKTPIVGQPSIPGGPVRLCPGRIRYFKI
UniProt P11311, residues 60-1627: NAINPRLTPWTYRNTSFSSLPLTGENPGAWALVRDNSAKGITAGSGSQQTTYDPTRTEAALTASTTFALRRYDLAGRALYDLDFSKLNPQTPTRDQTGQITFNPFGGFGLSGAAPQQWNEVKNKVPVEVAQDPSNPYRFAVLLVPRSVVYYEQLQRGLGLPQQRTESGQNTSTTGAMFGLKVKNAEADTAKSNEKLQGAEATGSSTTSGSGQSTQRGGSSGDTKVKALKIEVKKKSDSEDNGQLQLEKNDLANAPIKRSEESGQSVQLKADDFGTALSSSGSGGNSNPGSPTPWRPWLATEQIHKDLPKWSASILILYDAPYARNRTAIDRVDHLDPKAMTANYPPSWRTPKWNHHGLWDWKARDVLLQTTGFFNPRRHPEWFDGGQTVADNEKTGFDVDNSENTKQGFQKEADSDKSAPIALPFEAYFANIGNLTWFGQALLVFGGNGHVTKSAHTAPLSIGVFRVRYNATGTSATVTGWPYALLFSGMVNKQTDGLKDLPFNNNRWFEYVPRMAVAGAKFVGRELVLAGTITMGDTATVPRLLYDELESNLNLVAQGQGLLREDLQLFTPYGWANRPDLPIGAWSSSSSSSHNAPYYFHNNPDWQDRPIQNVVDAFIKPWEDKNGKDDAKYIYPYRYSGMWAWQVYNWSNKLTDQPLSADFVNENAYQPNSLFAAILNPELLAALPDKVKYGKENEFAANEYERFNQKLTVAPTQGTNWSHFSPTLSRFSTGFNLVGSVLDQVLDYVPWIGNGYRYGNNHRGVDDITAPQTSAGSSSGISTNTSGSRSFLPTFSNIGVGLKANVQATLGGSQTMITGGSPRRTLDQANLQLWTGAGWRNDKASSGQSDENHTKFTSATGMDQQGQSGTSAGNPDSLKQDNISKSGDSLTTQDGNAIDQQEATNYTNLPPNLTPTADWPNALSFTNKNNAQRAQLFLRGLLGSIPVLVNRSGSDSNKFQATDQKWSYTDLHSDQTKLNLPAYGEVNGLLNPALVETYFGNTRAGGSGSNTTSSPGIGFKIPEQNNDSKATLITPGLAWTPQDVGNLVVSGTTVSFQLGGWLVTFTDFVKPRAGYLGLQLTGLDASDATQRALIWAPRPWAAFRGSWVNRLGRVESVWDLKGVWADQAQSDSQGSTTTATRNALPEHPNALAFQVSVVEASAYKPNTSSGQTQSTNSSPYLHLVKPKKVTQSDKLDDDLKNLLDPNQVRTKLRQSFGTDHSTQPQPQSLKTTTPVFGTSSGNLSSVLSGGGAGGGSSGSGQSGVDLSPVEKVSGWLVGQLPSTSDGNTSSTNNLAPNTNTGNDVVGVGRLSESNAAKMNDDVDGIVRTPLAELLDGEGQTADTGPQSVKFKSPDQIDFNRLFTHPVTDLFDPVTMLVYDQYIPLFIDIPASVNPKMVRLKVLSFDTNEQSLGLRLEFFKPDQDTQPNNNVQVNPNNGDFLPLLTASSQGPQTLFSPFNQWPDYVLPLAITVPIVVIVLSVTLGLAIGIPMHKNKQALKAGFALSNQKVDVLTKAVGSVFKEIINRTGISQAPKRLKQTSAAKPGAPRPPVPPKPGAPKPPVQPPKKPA
UniProt P08729: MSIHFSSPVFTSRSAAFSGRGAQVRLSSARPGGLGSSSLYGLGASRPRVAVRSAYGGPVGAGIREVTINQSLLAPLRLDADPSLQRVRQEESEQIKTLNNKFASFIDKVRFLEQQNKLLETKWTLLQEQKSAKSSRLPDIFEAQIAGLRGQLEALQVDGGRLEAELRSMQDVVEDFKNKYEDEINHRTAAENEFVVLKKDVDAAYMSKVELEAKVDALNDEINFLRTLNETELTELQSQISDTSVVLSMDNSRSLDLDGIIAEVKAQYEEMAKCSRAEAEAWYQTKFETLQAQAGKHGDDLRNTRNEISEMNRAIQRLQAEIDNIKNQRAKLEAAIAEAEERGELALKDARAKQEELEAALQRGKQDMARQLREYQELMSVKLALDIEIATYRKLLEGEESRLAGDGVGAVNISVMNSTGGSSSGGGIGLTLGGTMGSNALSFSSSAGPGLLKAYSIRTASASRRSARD
UniProt P04406: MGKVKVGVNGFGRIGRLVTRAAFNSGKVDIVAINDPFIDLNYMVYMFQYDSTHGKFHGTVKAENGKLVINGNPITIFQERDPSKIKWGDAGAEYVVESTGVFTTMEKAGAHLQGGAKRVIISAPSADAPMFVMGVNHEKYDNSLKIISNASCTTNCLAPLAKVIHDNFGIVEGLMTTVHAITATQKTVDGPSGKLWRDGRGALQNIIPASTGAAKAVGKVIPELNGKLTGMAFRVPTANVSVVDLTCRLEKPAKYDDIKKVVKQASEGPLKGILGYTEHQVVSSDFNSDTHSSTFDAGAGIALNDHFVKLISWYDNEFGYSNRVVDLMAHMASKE
UniProt P08670: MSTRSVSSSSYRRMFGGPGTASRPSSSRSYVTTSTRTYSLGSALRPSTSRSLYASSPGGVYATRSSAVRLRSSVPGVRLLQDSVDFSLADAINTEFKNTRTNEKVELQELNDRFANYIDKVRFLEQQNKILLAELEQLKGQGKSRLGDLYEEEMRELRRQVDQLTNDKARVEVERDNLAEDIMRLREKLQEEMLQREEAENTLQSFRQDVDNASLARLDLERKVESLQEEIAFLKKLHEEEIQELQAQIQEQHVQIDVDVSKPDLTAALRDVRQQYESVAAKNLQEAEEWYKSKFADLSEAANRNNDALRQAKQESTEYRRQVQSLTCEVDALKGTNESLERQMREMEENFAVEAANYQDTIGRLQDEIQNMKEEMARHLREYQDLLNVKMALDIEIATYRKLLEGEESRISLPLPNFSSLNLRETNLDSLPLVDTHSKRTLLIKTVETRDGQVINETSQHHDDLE

In experiment [2] the target is T1, P1-15, synthetic C-terminal peptide of P1 adhesin with N-terminal biotin (Mycoplasma pneumoniae).
T1 sequence (peptide, N-terminal biotin tag): PGAPKPPVQPPKKPA
Nature of the experiment: affinity purification with mass spectrometry; 1 mg biotinylated P1-15 on Avidin Agarose as bait; native A549 cell lysate (1% C7BzO in PBS), 16 h at 4 °C; four PBS washes; eluted with urea/thiourea; uncoupled avidin agarose as control; 1D-SDS PAGE and LC-MS/MS; only the target purified.

These are yes or no findings as the source states them, for the method shown. In cells and extracts the contact can be indirect. These calls come from enrichment with a bait or labelling near it, and not all partners need be listed. For some assays here: No binding means not detected with the bait. For some assays here: Sequences can lack the tags named with a protein.

“P1 adhesin, full length proteoform without the N-terminal signal sequence (from UniProt P11311 60-1627)”: in experiment [1], the binding entry is recorded as “binds”.

For the molecule “cytokeratin 7 (from UniProt P08729 1-469)”, the binding entry in experiment [2] is “binds”.

Consider “glyceraldehyde-3-phosphate dehydrogenase (from UniProt P04406 1-335) (enzyme)”, for which the binding result in experiment [2] is “no binding”.

For the molecule vimentin (from UniProt P08670 1-466), the binding result in experiment [2] was “binds”.

B1: cytokeratin 18 (protein, UniProt P05783 1-430)
chain: MSFTTRSTFSTNYRSLGSVQAPSYGARPVSSAASVYAGAGGSGSRISVSRSTSFRGGMGSGGLATGIAGGLAGMGGIQNEKETMQSLNDRLASYLDRVRSLETENRRLESKIREHLEKKGPQVRDWSHYFKIIEDLRAQIFANTVDNARIVLQIDNARLAADDFRVKYETELAMRQSVENDIHGLRKVIDDTNITRLQLETEIEALKEELLFMKKNHEEEVKGLQAQIASSGLTVEVDAPKSQDLAKIMADIRAQYDELARKNREELDKYWSQQIEESTTVVTTQSAEVGAAETTLTELRRTVQSLEIDLDSMRNLKASLENSLREVEARYALQMEQLNGILLHLESELAQTRAEGQRQAQEYEALLNIKVKLEAEIATYRRLLEDGEDFNLGDALDSSNSMQTIQKTTTRRIVDGKVVSETNDTKVLRH
B1: the binding result in experiment [2] was “binds”.

Values taken from publication PMC7156367, “Cell surface processing of the P1 adhesin of Mycoplasma pneumoniae identifies novel domains that bind host molecules” (Scientific Reports, 2020).
